{"source": "the supplement of paper PMC12067093", "about": "“Discovery and optimisation of a covalent ligand for TRIM25 and its application to targeted protein ubiquitination” (Chemical Science, 2025)", "test_in_all_cases": "probe-labelled cysteine peptide fold change vs DMSO (competition) (log2 fold change); higher = less target engagement (more negative = stronger competition)", "details_in_all_cases": "THP-1, incubation time: 4 h", "key": {"[1]": {"target": "HIVEP3_Q5T1R4_1369_GTTVCGADVHEVGPGPSGLSEEQSR (UniProt Q5T1R4)"}, "[2]": {"target": "HIVEP3_Q5T1R4_1756_YVCEECGIR (UniProt Q5T1R4)"}, "[3]": {"target": "HIVEP3_Q5T1R4_324_CSLSQSSTAQSLEDPPPFVEPSSEHPLSHKPEDTHTIK (UniProt Q5T1R4)"}}, "note": "Some of the results follow.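 Also: competitive profiling in live THP-1 cells: cysteine peptides tagged with an iodoacetamide desthiobiotin (IA-DTB) probe, intensity after compound treatment relative to DMSO-treated cells.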", "data": [{"smiles": "Cc1cc(C(=O)N2CCCN(C(=O)CCl)CC2)ccc1-c1ccccc1", "note": "[compound 10]", "values": [{"measurement": "probe-labelled cysteine peptide fold change", "setting": "[1]; 10 µM", "value": -0.288}, {"measurement": "probe-labelled cysteine peptide fold change", "setting": "[1]; 50 µM", "value": -0.335}, {"measurement": "probe-labelled cysteine peptide fold change", "setting": "[2]; 10 µM", "value": 0.0727}, {"measurement": "probe-labelled cysteine peptide fold change", "setting": "[2]; 50 µM", "value": 0.154}, {"measurement": "probe-labelled cysteine peptide fold change", "setting": "[3]; 10 µM", "value": 0.109}, {"measurement": "probe-labelled cysteine peptide fold change", "setting": "[3]; 50 µM", "value": -0.192}]}]}
